In the supplement of paper PMC4604168 (melanoma cell lines):
The other results are listed elsewhere or left out. Single values are uncertain, as repeats are few or missing.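 The apoptosis fraction was the count of cleaved-PARP antibody-stained nuclei relative to all DNA-stained nuclei, imaged in 1,536-well plates. Screening doses were set so most cells survived, and baseline and induced cleaved-PARP levels vary greatly across cell lines.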

Each molecule was assayed on A101D (assay: cleaved PARP positive nuclei fraction relative to DMSO control; melanoma cells; higher = more apoptosis). Conditions: library dose: low library concentration; 72 h.

SMILES | cleaved PARP positive nuclei fraction [%]
Cc1ccc(Nc2nccc(N(C)c3ccc4c(C)n(C)nc4c3)n2)cc1S(N)(=O)=O [Pazopanib] + COc1cc2c(Oc3ccc4[nH]c(C)cc4c3F)ncnc2cc1OCCCN1CCCC1 [cediranib] (first compound 0.4 µM, partner dose 0.4 µM) | 115
Cc1cn(-c2cc(NC(=O)c3ccc(C)c(Nc4nccc(-c5cccnc5)n4)c3)cc(C(F)(F)F)c2)cn1 [nilotinib] + Cc1cc(N2CCOCC2)cc2[nH]c(-c3c(NC[C@@H](O)c4cccc(Cl)c4)cc[nH]c3=O)nc12 [BMS536924] (first compound 0.2 µM, partner dose 0.2 µM) | 83.7
O=c1[nH]nc(Sc2ncc([N+](=O)[O-])s2)n1-c1ccc2c(c1)OCCO2 + O=C(Nc1cccc(Cl)c1)Nc1ncc(CCNc2ncnc3ccsc23)s1 [SNS314] (first compound 0.2 µM, partner dose 0.0008 µM) | 58.4
Cc1ccc(Nc2nccc(N(C)c3ccc4c(C)n(C)nc4c3)n2)cc1S(N)(=O)=O [Pazopanib] + Cc1cc(N2CCOCC2)cc2[nH]c(-c3c(NC[C@@H](O)c4cccc(Cl)c4)cc[nH]c3=O)nc12 [BMS536924] (first compound 0.4 µM, partner dose 0.2 µM) | 20.5
COc1cc([C@@H]2c3cc4c(cc3[C@@H](O[C@@H]3O[C@@H]5CO[C@@H](C)O[C@H]5[C@H](O)[C@H]3O)[C@H]3COC(=O)[C@H]23)OCO4)cc(OC)c1O [etoposide] + C[C@@H]1CCN(C(=O)CC#N)C[C@@H]1N(C)c1ncnc2[nH]ccc12 [CP690550] (first compound 0.02 µM, partner dose 1 µM) | 163
Cc1cc(Nc2cc(N3CCN(C)CC3)nc(Sc3ccc(NC(=O)C4CC4)cc3)n2)n[nH]1 [Tozasertib] + CN(C)S(=O)(=O)c1ccc2c(c1)/C(=C/c1cc3c([nH]1)CCCC3)C(=O)N2 [SU6656] (first compound 0.006 µM, partner dose 0.4 µM) | 55.2
O=C(/C=C/c1cccnc1)NCCCCC1CCN(C(=O)c2ccccc2)CC1 + CN(NC(=O)CC(=O)NN(C)C(=S)c1ccccc1)C(=S)c1ccccc1 [STA4783] (first compound 0.01 µM, partner dose 0.006 µM) | 228
O=C(Nc1cc(C(F)(F)F)cc(C(F)(F)F)c1)c1cc(Cl)ccc1O + CN(NC(=O)CC(=O)NN(C)C(=S)c1ccccc1)C(=S)c1ccccc1 [STA4783] (first compound 0.016 µM, partner dose 0.006 µM) | 92
COc1cc([C@@H]2c3cc4c(cc3[C@@H](O[C@@H]3O[C@@H]5CO[C@@H](C)O[C@H]5[C@H](O)[C@H]3O)[C@H]3COC(=O)[C@H]23)OCO4)cc(OC)c1O [etoposide] + NC(=O)Nc1cc(-c2cccc(F)c2)sc1C(=O)N[C@H]1CCCNC1 [AZD7762] (first compound 0.02 µM, partner dose 0.02 µM) | 106
CCCCCCCCCCCCCCCCCCOP(=O)([O-])OC1CC[N+](C)(C)CC1 [Perifosine] + NCC(=O)Nc1ccc(-n2nc(C(F)(F)F)cc2-c2ccc3c(ccc4ccccc43)c2)cc1 [OSU03012] (first compound 0.4 µM, partner dose 1 µM) | 66.9
CCCCCCCCCCCCCCCCCCOP(=O)([O-])OC1CC[N+](C)(C)CC1 [Perifosine] + O=C(Nc1cccc(Cl)c1)Nc1ncc(CCNc2ncnc3ccsc23)s1 [SNS314] (first compound 0.4 µM, partner dose 0.0008 µM) | 96.1
O=C(/C=C/c1cccnc1)NCCCCC1CCN(C(=O)c2ccccc2)CC1 + Cc1cc(N2CCOCC2)cc2[nH]c(-c3c(NC[C@@H](O)c4cccc(Cl)c4)cc[nH]c3=O)nc12 [BMS536924] (first compound 0.01 µM, partner dose 0.2 µM) | 84.9
COc1cc([C@@H]2c3cc4c(cc3[C@@H](O[C@@H]3O[C@@H]5CO[C@@H](C)O[C@H]5[C@H](O)[C@H]3O)[C@H]3COC(=O)[C@H]23)OCO4)cc(OC)c1O [etoposide] + OCCn1cc(-c2cnc3nnn(Cc4ccc5ncccc5c4)c3n2)cn1 [PF04217903] (first compound 0.02 µM, partner dose 1 µM) | 77.4
COc1cc([C@@H]2c3cc4c(cc3[C@@H](O[C@@H]3O[C@@H]5CO[C@@H](C)O[C@H]5[C@H](O)[C@H]3O)[C@H]3COC(=O)[C@H]23)OCO4)cc(OC)c1O [etoposide] + Cc1cc(N2CCOCC2)cc2[nH]c(-c3c(NC[C@@H](O)c4cccc(Cl)c4)cc[nH]c3=O)nc12 [BMS536924] (first compound 0.02 µM, partner dose 0.2 µM) | 73.9
O=c1[nH]nc(Sc2ncc([N+](=O)[O-])s2)n1-c1ccc2c(c1)OCCO2 + O=C(CCCCCCC(=O)Nc1ccccc1)NO [vorinostat] (first compound 0.2 µM, partner dose 0.08 µM) | 99.5
Cc1ccc(Nc2nccc(N(C)c3ccc4c(C)n(C)nc4c3)n2)cc1S(N)(=O)=O [Pazopanib] + CO[C@@H]1[C@H](N(C)C(=O)c2ccccc2)C[C@H]2O[C@]1(C)n1c3ccccc3c3c4c(c5c6ccccc6n2c5c31)C(=O)NC4 [Midostaurin] (first compound 0.4 µM, partner dose 0.08 µM) | 109
N#CC[C@H](C1CCCC1)n1cc(-c2ncnc3[nH]ccc23)cn1 [ruxolitinib] + Cc1cc(N2CCOCC2)cc2[nH]c(-c3c(NC[C@@H](O)c4cccc(Cl)c4)cc[nH]c3=O)nc12 [BMS536924] (first compound 1 µM, partner dose 0.2 µM) | 37.1
COc1cc([C@@H]2c3cc4c(cc3[C@@H](O[C@@H]3O[C@@H]5CO[C@@H](C)O[C@H]5[C@H](O)[C@H]3O)[C@H]3COC(=O)[C@H]23)OCO4)cc(OC)c1O [etoposide] + CO[C@@H]1[C@H](N(C)C(=O)c2ccccc2)C[C@H]2O[C@]1(C)n1c3ccccc3c3c4c(c5c6ccccc6n2c5c31)C(=O)NC4 [Midostaurin] (first compound 0.02 µM, partner dose 0.08 µM) | 60.5
COc1cc([C@@H]2c3cc4c(cc3[C@@H](O[C@@H]3O[C@@H]5CO[C@@H](C)O[C@H]5[C@H](O)[C@H]3O)[C@H]3COC(=O)[C@H]23)OCO4)cc(OC)c1O [etoposide] + O=C(Nc1cccc(Cl)c1)Nc1ncc(CCNc2ncnc3ccsc23)s1 [SNS314] (first compound 0.02 µM, partner dose 0.0008 µM) | 55.6
CCCCCCCCCCCCCCCCCCOP(=O)([O-])OC1CC[N+](C)(C)CC1 [Perifosine] + NC(=O)Nc1cc(-c2cccc(F)c2)sc1C(=O)N[C@H]1CCCNC1 [AZD7762] (first compound 0.4 µM, partner dose 0.02 µM) | 67.4
O=C(/C=C/c1cccnc1)NCCCCC1CCN(C(=O)c2ccccc2)CC1 + CO[C@@H]1[C@H](N(C)C(=O)c2ccccc2)C[C@H]2O[C@]1(C)n1c3ccccc3c3c4c(c5c6ccccc6n2c5c31)C(=O)NC4 [Midostaurin] (first compound 0.01 µM, partner dose 0.08 µM) | 58.1
CC[C@]1(O)C[C@H]2CN(CCc3c([nH]c4ccccc34)[C@@](C(=O)OC)(c3cc4c(cc3OC)N(C=O)[C@H]3[C@@](O)(C(=O)OC)[C@H](OC(C)=O)[C@]5(CC)C=CCN6CC[C@]43[C@@H]65)C2)C1 [vincristine] + CN(C)S(=O)(=O)c1ccc2c(c1)/C(=C/c1cc3c([nH]1)CCCC3)C(=O)N2 [SU6656] (first compound 0.0001 µM, partner dose 0.4 µM) | 431
O=C(/C=C/c1cccnc1)NCCCCC1CCN(C(=O)c2ccccc2)CC1 + CN(C)S(=O)(=O)c1ccc2c(c1)/C(=C/c1cc3c([nH]1)CCCC3)C(=O)N2 [SU6656] (first compound 0.01 µM, partner dose 0.4 µM) | 181
Cc1ccc(Nc2nccc(N(C)c3ccc4c(C)n(C)nc4c3)n2)cc1S(N)(=O)=O [Pazopanib] + NC(=O)Nc1cc(-c2cccc(F)c2)sc1C(=O)N[C@H]1CCCNC1 [AZD7762] (first compound 0.4 µM, partner dose 0.02 µM) | 147
Cc1cn(-c2cc(NC(=O)c3ccc(C)c(Nc4nccc(-c5cccnc5)n4)c3)cc(C(F)(F)F)c2)cn1 [nilotinib] + NC(=O)Nc1cc(-c2cccc(F)c2)sc1C(=O)N[C@H]1CCCNC1 [AZD7762] (first compound 0.2 µM, partner dose 0.02 µM) | 99.4
CCCCCCCCCCCCCCCCCCOP(=O)([O-])OC1CC[N+](C)(C)CC1 [Perifosine] + C[C@@H]1CCN(C(=O)CC#N)C[C@@H]1N(C)c1ncnc2[nH]ccc12 [CP690550] (first compound 0.4 µM, partner dose 1 µM) | 97.8
N#CC[C@H](C1CCCC1)n1cc(-c2ncnc3[nH]ccc23)cn1 [ruxolitinib] + C[C@@H]1CCN(C(=O)CC#N)C[C@@H]1N(C)c1ncnc2[nH]ccc12 [CP690550] (first compound 1 µM, partner dose 1 µM) | 132
COc1cc([C@@H]2c3cc4c(cc3[C@@H](O[C@@H]3O[C@@H]5CO[C@@H](C)O[C@H]5[C@H](O)[C@H]3O)[C@H]3COC(=O)[C@H]23)OCO4)cc(OC)c1O [etoposide] + Cn1cncc1[C@@](N)(c1ccc(Cl)cc1)c1ccc2c(c1)c(-c1cccc(Cl)c1)cc(=O)n2C [tipifarnib] (first compound 0.02 µM, partner dose 0.01 µM) | 44.4

Looked up one by one from the list above (2):
SMILES | cleaved PARP positive nuclei fraction [%]
COc1cc([C@@H]2c3cc4c(cc3[C@@H](O[C@@H]3O[C@@H]5CO[C@@H](C)O[C@H]5[C@H](O)[C@H]3O)[C@H]3COC(=O)[C@H]23)OCO4)cc(OC)c1O [etoposide] + O=C(Nc1cccc(Cl)c1)Nc1ncc(CCNc2ncnc3ccsc23)s1 [SNS314] (first compound 0.02 µM, partner dose 0.0008 µM) | 55.6
COc1cc([C@@H]2c3cc4c(cc3[C@@H](O[C@@H]3O[C@@H]5CO[C@@H](C)O[C@H]5[C@H](O)[C@H]3O)[C@H]3COC(=O)[C@H]23)OCO4)cc(OC)c1O [etoposide] + CO[C@@H]1[C@H](N(C)C(=O)c2ccccc2)C[C@H]2O[C@]1(C)n1c3ccccc3c3c4c(c5c6ccccc6n2c5c31)C(=O)NC4 [Midostaurin] (first compound 0.02 µM, partner dose 0.08 µM) | 60.5
